The other results are listed elsewhere or left out.
Columns and labels:
Test in all cases: log2 fold change, soluble protein after heating vs DMSO (PISA); higher = thermal stabilisation; K562 cells, 10 uM, 30 min; active = over 0.2 and 3.5 SD of the protein, either way, in both replicates (recomputed)
[1] = compound: CN1CCN(CCOc2cc(OC3CCOCC3)c3c(Nc4c(Cl)ccc5c4OCO5)ncnc3c2)CC1 [saracatinib]
How it was run: (§1)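 K562 cells at 2×10^6 cells/mL were given 10 μM compound for 30 min. Aliquots then went through 3 min of heating across 48°C-58°C, were pooled, and were extracted in PBS with 0.5% NP-40 at 4°C, and the supernatant after 21,000xg for 90 min was quantified by TMTpro 16plex LC-MS/MS with channel sums equalised. Thermal stability relative to control samples, from duplicates, is given as log2 fold change.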

Chains of the proteins cited; added tags and fusions are not shown. Lines headed by an entry give the natural chain unless they say otherwise; changes in a name come on top.
UniProt Q8WVL7: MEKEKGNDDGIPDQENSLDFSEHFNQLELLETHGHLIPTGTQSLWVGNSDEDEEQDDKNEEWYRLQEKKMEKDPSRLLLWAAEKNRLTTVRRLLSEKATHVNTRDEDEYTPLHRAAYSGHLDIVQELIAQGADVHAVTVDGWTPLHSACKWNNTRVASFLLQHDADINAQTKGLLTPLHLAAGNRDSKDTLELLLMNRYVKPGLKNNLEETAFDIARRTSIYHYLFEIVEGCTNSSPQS
UniProt Q92888: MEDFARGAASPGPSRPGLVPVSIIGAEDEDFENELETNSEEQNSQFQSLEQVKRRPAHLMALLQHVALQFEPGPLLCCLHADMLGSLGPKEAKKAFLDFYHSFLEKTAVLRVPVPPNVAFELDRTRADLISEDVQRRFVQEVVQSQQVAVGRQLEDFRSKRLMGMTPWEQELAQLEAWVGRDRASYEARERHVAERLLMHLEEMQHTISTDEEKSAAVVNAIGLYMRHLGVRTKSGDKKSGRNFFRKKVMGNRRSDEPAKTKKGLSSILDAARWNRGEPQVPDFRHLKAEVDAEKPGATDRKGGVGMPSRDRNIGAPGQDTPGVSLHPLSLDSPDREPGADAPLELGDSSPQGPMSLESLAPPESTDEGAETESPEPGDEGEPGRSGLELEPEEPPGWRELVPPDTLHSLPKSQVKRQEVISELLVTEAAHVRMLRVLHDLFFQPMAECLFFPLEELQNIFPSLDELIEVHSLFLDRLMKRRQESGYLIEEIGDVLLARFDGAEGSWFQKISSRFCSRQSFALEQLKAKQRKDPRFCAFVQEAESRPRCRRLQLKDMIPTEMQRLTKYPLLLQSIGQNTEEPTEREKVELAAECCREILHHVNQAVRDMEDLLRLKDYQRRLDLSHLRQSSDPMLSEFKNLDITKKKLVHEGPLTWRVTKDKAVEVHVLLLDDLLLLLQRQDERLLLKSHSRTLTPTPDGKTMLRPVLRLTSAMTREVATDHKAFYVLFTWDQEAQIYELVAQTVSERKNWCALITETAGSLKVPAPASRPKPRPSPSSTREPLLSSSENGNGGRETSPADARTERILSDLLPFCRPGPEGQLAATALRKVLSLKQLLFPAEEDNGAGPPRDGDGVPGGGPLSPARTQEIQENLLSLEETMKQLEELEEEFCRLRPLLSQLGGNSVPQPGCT
UniProt Q86W74: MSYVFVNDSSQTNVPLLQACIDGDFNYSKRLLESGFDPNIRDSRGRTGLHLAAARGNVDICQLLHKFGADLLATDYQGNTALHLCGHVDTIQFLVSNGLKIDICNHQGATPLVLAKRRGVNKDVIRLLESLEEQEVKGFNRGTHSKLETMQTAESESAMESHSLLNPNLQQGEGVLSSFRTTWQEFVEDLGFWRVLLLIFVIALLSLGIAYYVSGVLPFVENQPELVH
UniProt P52565: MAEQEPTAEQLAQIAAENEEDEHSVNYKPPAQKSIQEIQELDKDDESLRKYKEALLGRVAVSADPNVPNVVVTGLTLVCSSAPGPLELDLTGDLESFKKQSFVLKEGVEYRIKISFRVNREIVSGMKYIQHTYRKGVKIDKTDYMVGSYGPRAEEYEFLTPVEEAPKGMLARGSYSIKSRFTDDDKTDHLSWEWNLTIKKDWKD
UniProt Q96AK3: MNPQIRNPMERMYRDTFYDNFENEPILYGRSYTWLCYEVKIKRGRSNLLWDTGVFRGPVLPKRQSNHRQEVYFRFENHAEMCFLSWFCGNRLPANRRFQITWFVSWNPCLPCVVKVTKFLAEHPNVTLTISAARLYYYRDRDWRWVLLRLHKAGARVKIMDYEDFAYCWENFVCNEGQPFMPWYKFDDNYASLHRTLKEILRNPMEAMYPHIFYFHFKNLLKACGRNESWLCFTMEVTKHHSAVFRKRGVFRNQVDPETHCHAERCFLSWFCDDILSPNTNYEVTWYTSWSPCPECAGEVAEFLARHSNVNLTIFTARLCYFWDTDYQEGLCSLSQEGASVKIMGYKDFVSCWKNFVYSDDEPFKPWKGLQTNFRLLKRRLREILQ
UniProt Q9Y5C1: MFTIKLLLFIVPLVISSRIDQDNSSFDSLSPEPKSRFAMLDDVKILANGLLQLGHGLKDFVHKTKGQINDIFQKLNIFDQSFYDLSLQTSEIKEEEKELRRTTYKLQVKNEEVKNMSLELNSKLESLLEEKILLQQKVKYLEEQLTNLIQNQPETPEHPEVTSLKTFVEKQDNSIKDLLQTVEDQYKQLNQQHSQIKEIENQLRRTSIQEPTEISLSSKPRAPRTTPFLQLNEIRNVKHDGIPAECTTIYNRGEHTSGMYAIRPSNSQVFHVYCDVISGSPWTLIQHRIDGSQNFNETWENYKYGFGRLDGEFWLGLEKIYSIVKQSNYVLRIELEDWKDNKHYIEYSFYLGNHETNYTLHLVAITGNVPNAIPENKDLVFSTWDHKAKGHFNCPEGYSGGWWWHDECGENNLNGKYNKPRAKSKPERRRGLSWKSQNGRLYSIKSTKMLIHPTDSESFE
UniProt P27695, whole entry, looked up: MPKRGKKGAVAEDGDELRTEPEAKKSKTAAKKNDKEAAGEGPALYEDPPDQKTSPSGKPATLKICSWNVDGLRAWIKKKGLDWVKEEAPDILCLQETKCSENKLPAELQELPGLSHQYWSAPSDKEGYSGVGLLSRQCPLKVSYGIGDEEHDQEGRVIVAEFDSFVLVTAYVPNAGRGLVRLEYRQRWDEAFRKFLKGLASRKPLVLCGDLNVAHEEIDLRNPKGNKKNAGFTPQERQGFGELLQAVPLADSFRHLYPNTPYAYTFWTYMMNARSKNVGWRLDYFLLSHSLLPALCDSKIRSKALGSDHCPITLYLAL
UniProt Q92688: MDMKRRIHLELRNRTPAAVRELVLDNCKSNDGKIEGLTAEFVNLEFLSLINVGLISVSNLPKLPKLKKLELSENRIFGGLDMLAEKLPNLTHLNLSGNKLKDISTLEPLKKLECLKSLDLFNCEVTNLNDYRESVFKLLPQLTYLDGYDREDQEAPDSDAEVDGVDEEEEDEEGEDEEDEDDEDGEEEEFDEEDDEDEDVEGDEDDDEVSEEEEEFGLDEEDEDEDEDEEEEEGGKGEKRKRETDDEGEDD
UniProt Q9NRW3: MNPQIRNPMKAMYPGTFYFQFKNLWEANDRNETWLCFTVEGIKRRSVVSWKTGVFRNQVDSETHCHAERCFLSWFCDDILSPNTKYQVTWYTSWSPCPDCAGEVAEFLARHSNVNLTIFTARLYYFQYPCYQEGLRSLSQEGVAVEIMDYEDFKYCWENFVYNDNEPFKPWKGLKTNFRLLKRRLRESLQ
UniProt Q14155: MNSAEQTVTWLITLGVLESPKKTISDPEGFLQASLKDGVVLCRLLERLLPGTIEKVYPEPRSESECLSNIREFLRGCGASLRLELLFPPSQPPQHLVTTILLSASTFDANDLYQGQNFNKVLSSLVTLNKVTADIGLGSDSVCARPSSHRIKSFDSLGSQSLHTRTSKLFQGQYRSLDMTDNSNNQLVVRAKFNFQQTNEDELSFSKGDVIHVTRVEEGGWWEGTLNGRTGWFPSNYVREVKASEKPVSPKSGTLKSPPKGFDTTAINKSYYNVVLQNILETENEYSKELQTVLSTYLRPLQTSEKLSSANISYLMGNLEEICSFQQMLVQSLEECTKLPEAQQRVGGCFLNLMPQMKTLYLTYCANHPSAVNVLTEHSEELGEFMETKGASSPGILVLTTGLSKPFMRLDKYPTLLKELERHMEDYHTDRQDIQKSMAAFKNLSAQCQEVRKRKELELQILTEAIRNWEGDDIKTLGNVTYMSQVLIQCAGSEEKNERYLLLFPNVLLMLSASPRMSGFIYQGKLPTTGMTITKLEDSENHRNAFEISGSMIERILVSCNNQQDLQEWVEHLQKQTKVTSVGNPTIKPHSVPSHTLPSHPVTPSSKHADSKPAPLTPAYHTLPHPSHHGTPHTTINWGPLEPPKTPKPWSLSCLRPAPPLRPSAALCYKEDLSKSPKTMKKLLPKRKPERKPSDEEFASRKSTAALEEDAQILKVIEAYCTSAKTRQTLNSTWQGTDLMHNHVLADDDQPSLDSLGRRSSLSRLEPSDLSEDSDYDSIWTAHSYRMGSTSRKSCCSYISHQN
UniProt Q8IZ07: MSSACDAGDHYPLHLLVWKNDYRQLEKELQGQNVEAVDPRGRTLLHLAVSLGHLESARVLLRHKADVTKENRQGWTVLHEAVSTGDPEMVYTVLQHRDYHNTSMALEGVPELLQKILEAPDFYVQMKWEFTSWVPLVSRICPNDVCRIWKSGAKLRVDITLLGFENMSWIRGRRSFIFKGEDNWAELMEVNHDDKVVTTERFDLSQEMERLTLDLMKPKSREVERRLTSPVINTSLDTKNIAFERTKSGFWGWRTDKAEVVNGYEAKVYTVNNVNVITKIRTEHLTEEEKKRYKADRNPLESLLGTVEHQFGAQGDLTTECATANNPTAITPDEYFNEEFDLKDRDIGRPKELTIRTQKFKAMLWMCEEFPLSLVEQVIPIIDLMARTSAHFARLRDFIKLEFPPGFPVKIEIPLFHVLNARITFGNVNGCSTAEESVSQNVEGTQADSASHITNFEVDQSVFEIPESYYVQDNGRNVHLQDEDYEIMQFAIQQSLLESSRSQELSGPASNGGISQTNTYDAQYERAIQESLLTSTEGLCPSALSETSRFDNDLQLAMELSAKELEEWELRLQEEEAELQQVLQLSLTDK
UniProt O95445: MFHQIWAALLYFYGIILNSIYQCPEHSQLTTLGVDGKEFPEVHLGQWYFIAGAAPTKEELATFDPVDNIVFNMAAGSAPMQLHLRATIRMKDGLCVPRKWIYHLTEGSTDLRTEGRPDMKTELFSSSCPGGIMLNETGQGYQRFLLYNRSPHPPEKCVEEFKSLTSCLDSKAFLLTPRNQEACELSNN
UniProt Q9BUR5: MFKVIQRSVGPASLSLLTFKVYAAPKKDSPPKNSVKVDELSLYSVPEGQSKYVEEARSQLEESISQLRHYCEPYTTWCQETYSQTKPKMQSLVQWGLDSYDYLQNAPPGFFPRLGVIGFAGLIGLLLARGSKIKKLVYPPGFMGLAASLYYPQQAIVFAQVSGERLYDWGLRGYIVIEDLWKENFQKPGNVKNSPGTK
UniProt P61966: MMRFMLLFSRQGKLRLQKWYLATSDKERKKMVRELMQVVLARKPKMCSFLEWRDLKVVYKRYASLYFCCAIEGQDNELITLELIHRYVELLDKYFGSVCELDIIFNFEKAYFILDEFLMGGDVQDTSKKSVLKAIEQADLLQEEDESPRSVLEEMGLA
UniProt O43299: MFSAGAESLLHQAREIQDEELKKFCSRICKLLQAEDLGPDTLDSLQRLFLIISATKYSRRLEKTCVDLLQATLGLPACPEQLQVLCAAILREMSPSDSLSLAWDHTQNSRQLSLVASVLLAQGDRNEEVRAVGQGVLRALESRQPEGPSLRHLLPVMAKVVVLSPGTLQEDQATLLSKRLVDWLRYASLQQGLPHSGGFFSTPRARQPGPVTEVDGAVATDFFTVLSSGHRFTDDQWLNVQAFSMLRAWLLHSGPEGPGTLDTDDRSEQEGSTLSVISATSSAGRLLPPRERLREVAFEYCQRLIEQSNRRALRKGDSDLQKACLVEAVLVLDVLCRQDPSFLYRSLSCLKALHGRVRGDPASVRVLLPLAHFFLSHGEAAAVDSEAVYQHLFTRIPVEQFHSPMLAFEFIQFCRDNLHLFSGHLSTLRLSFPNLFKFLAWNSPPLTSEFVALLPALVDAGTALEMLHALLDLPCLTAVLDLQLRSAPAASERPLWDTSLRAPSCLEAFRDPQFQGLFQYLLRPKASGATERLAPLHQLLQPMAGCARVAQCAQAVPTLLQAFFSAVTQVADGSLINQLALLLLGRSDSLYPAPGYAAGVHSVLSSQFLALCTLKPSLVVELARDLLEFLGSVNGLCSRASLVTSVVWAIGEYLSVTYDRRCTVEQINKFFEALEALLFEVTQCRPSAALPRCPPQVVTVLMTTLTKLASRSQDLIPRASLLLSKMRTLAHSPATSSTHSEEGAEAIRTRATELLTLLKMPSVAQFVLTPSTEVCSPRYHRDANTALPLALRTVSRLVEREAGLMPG

[2] = compound: CN1CCN(c2nc(C3=C(c4c[nH]c5ccccc45)C(=O)NC3=O)c3ccccc3n2)CC1 [sotrastaurin]
How it was run: as §1

[3] = compound: CN1CC[C@H](c2c(O)cc(O)c3c(=O)cc(-c4ccccc4Cl)oc23)[C@H](O)C1 [alvocidib]
How it was run: as §1

[4] = compound: CN1CCc2c(c3ccccc3n2Cc2ccc(C(=O)NO)cc2)C1 [Tubastatin A]
How it was run: as §1

[5] = compound: CNC(=O)C1=CC=CC=C1NC2=NC(=NC=C2Cl)NC3=C(C=C(C=C3)N4CCOCC4)OC
How it was run: as §1

[6] = compound: CNC(=O)c1ccc(Nc2ncc(C(F)(F)F)c(NCc3nccnc3N(C)S(C)(=O)=O)n2)cc1 [defactinib]
How it was run: as §1

[7] = compound: CNCc1ccc(-c2[nH]c3cc(F)cc4c3c2CCNC4=O)cc1 [rucaparib]
How it was run: as §1

[8] = compound: CNc1nc(-c2ccc3c(N)n[nH]c3c2)cc(N2C[C@@H](C(=O)NC3CCCCC3)CC[C@H]2C)n1
How it was run: as §1

[9] = compound: COC(=O)N[C@@H](C)CNc1nccc(-c2cn(C(C)C)nc2-c2cc(Cl)cc(NS(C)(=O)=O)c2F)n1 [encorafenib]
How it was run: as §1

[10] = compound: COC(=O)[C@H](CCSC)NC(=O)C1=C(C=C(C=C1)NC[C@H](CS)N)C2=CC=CC=C2
How it was run: as §1

[11] = compound: COC1=CC=C(C=C1)CN2C=CC3=C2C=C(C=C3)C(=O)NO
How it was run: as §1

[12] = compound: CON(C)C(=O)N1N=C(c2cc(F)ccc2F)S[C@@]1(CCCN)c1ccccc1 [filanesib]
How it was run: as §1

[13] = compound: CO[C@H]1C[C@@H]2CC[C@@H](C)[C@@](O)(O2)C(=O)C(=O)N2CCCC[C@H]2C(=O)O[C@H]([C@H](C)C[C@@H]2CC[C@H](n3cnnn3)[C@H](OC)C2)CC(=O)[C@H](C)/C=C(\C)[C@@H](O)[C@@H](OC)C(=O)[C@H](C)C[C@H](C)/C=C/C=C/C=C/1C [zotarolimus]
How it was run: as §1

[14] = compound: COc1cc(C(=O)O)ccc1NC(=O)[C@@H]1N[C@@H](CC(C)(C)C)[C@](C#N)(c2ccc(Cl)cc2F)[C@H]1c1cccc(Cl)c1F [idasanutlin]
How it was run: as §1

[15] = compound: COc1cc(Nc2ncc3c(n2)-c2ccc(Cl)cc2C(c2c(F)cccc2OC)=NC3)ccc1C(=O)O [alisertib]
How it was run: as §1

[16] = compound: COc1cc2nc(-c3cc(F)ccc3O)nc(N[C@@H]3CNC[C@H]3C(C)(C)O)c2cc1OC
How it was run: as §1

[17] = compound: COc1cc2ncnc(Nc3ccc(F)c(Cl)c3)c2cc1OCCCN1CCOCC1 [gefitinib]
How it was run: as §1

[18] = compound: COc1cccc2cc(-c3nc([C@H]4CC[C@H](C(=O)O)CC4)n4ncnc(N)c34)[nH]c12
How it was run: as §1

[19] = compound: CS(=O)(=O)CCNCc1ccc(-c2ccc3ncnc(Nc4ccc(OCc5cccc(F)c5)c(Cl)c4)c3c2)o1 [lapatinib]
How it was run: as §1

[20] = compound: CS(=O)(=O)N1CCN(Cc2cc3nc(-c4cccc5[nH]ncc45)nc(N4CCOCC4)c3s2)CC1 [pictilisib]
How it was run: as §1

Measured: log2 fold change

ANKRD49 (UniProt Q8WVL7)
inactive: [1] -0.045 | [2] -0.021 | [3] -0.067 | [4] 0.002 | [5] -0.048 | [6] -0.078 | [7] -0.018 | [8] -0.015 | [9] 0.032 | [10] 0.001 | [11] 0.003 | [12] -0.079 | [13] -0.004 | [14] 0.046 | [15] -0.051 | [16] -0.018 | [17] -0.009 | [18] 0 | [19] 0.07 | [20] 0.127

ARHGEF1 isoform 3 (UniProt Q92888)
inactive: [1] -0.07 | [2] -0.187 | [3] 0.051 | [4] 0.066 | [5] -0.023 | [6] 0.02 | [7] 0.295 | [8] 0.08 | [9] 0.189 | [10] -0.047 | [11] 0.006 | [12] 0.197 | [13] 0.077 | [14] 0.126 | [15] -0.053 | [16] -0.031 | [17] 0.031 | [18] -0.111 | [19] 0.021 | [20] 0.007

ANKRD46 (UniProt Q86W74)
inactive: [1] -0.05 | [2] -0.011 | [3] 0.141 | [4] 0.152 | [5] 0.052 | [6] -0.052 | [7] -0.179 | [8] -0.104 | [9] 0.098 | [10] 0.063 | [12] 0.001 | [13] 0.031 | [14] -0.149 | [15] 0.004 | [16] -0.008 | [17] -0.06 | [18] 0.098 | [19] -0.03 | [20] -0.105

ARHGDIA (UniProt P52565)
inactive: [1] -0.006 | [2] -0.008 | [3] -0.081 | [4] 0.053 | [5] -0.031 | [6] -0.037 | [7] -0.067 | [8] 0.017 | [9] 0.023 | [10] -0.029 | [11] -0.048 | [12] 0.009 | [13] 0.054 | [14] -0.08 | [15] -0.052 | [16] -0.018 | [17] 0.018 | [18] -0.022 | [19] -0.014 | [20] 0.059

APOBEC3D (UniProt Q96AK3)
inactive: [1] -0.022 | [2] 0.05 | [3] 0.176 | [4] 0.104 | [5] 0.052 | [6] 0.302 | [7] 0.302 | [8] 0.064 | [9] 0.156 | [10] 0.042 | [11] 0.024 | [12] 0.263 | [13] -0.085 | [14] 0.318 | [15] -0.07 | [16] -0.042 | [18] -0.033 | [19] 0.188

ANGPTL3 (UniProt Q9Y5C1)
inactive: [1] -0.01 | [2] -0.007 | [3] -0.063 | [4] -0.019 | [5] 0.282 | [6] -0.026 | [7] 0.002 | [8] 0.13 | [9] -0.036 | [10] -0.003 | [11] -0.076 | [12] 0.277 | [13] -0.153 | [14] -0.02 | [15] -0.033 | [16] -0.011 | [18] 0.076 | [19] -0.075

APEX1 (UniProt P27695)
inactive: [1] 0.008 | [2] -0.002 | [3] -0.024 | [4] -0.039 | [5] 0.073 | [6] -0.155 | [7] -0.041 | [8] 0.003 | [9] 0.06 | [10] -0.01 | [11] 0.064 | [12] -0.107 | [13] 0.057 | [14] -0.009 | [15] -0.096 | [16] 0.101 | [17] -0.035 | [18] 0.006 | [19] -0.015 | [20] 0.017

ANP32B (UniProt Q92688)
inactive: [1] 0.002 | [2] 0.036 | [3] -0.092 | [4] -0.004 | [5] 0.12 | [6] -0.115 | [7] -0.119 | [8] -0.046 | [9] 0.006 | [10] 0.003 | [11] -0.038 | [12] -0.005 | [13] 0.014 | [14] -0.038 | [15] -0.045 | [16] 0.027 | [17] 0.022 | [18] 0.008 | [19] -0.046 | [20] 0.04

APOBEC3C (UniProt Q9NRW3)
inactive: [1] -0.023 | [2] 0.008 | [3] 0.206 | [4] 0.071 | [5] 0.011 | [6] 0.275 | [7] 0.255 | [8] 0.056 | [9] 0.122 | [10] 0.032 | [11] -0.023 | [12] 0.251 | [13] 0.022 | [14] 0.136 | [15] -0.173 | [16] -0.074 | [17] -0.101 | [18] -0.065 | [19] 0.171 | [20] 0.075

APOL2 (UniProt J3KQL8)
inactive: [1] -0.061 | [2] 0 | [3] 0.047 | [4] 0.044 | [5] -0.04 | [6] -0.071 | [7] -0.068 | [8] -0.111 | [9] 0 | [10] -0.052 | [12] -0.004 | [13] -0.055 | [14] 0.02 | [15] -0.016 | [16] 0.048 | [17] 0.029 | [18] -0.034 | [19] -0.048 | [20] -0.013

ARHGEF7 isoform 5 (UniProt Q14155)
inactive: [1] -0.033 | [2] -0.183 | [3] -0.079 | [4] -0.033 | [5] 0.022 | [6] -0.137 | [8] -0.027 | [10] -0.089 | [11] 0.067 | [12] 0.046 | [13] 0.143 | [14] 0.013 | [15] -0.05 | [16] 0.048 | [17] 0.088 | [18] -0.181 | [19] -0.068 | [20] 0.112

ANKRD13A (UniProt Q8IZ07)
inactive: [1] 0.012 | [2] -0.067 | [3] -0.092 | [4] -0.031 | [5] 0.015 | [6] -0.096 | [7] -0.039 | [8] -0.041 | [9] -0.045 | [10] -0.051 | [11] -0.024 | [12] 0.056 | [13] -0.025 | [14] -0.018 | [15] -0.102 | [16] -0.047 | [17] 0.035 | [18] 0.024 | [19] 0.05 | [20] 0.046

APOM (UniProt O95445)
inactive: [1] 0.301 | [2] 0.177 | [3] 0.07 | [4] -0.181 | [5] 0.091 | [6] -0.097 | [7] -0.181 | [8] -0.122 | [9] 0.06 | [10] 0.078 | [11] 0.03 | [12] 0.022 | [13] -0.106 | [14] 0.155 | [15] -0.042 | [16] -0.235 | [18] 0.306 | [19] -0.11 | [20] 0.098

Random excerpt: two records from the list
ANKRD13A (UniProt Q8IZ07)
inactive: [1] 0.012 | [2] -0.067 | [3] -0.092 | [4] -0.031 | [5] 0.015 | [6] -0.096 | [7] -0.039 | [8] -0.041 | [9] -0.045 | [10] -0.051 | [11] -0.024 | [12] 0.056 | [13] -0.025 | [14] -0.018 | [15] -0.102 | [16] -0.047 | [17] 0.035 | [18] 0.024 | [19] 0.05 | [20] 0.046

APOBEC3C (UniProt Q9NRW3)
inactive: [1] -0.023 | [2] 0.008 | [3] 0.206 | [4] 0.071 | [5] 0.011 | [6] 0.275 | [7] 0.255 | [8] 0.056 | [9] 0.122 | [10] 0.032 | [11] -0.023 | [12] 0.251 | [13] 0.022 | [14] 0.136 | [15] -0.173 | [16] -0.074 | [17] -0.101 | [18] -0.065 | [19] 0.171 | [20] 0.075

Next part:

APOO (UniProt Q9BUR5)
inactive: [1] 0.059 | [2] 0.048 | [3] -0.045 | [4] 0.086 | [5] -0.034 | [6] -0.004 | [7] -0.061 | [8] -0.093 | [9] -0.008 | [10] 0.076 | [11] 0.085 | [12] -0.099 | [13] -0.002 | [14] -0.02 | [15] -0.111 | [16] -0.111 | [17] -0.004 | [18] 0.035 | [19] 0.007 | [20] -0.021

AP1S1 (UniProt P61966)
inactive: [1] -0.023 | [2] -0.079 | [3] 0.007 | [4] -0.111 | [5] 0.071 | [6] -0.055 | [7] -0.046 | [8] 0.024 | [9] 0.06 | [10] -0.015 | [11] -0.103 | [12] -0.001 | [13] 0.034 | [14] -0.1 | [15] -0.048 | [16] -0.033 | [17] -0.009 | [18] 0.018 | [19] 0.006 | [20] 0.043

AP5Z1 (UniProt O43299)
inactive: [1] -0.135 | [2] 0.121 | [3] 0.037 | [4] -0.002 | [5] -0.15 | [6] 0.078 | [7] 0.214 | [8] -0.06 | [9] -0.239 | [10] -0.079 | [11] -0.332 | [12] 0.065 | [13] -0.05 | [14] 0.098 | [15] -0.081 | [16] 0.167 | [17] -0.018 | [18] 0.05 | [19] -0.092 | [20] -0.081

Source: the supplement of paper PMC10849652
